Assay [1] has as its system C. elegans. Briefly: general activity test (WMicrotracker). As to conditions: nominal concentrations; S medium with E. coli OD600 0.4; 24 h exposure; read-out: EC50 for the effect on activity (+95% confidence intervals). Type of assay: in vivo, Caenorhabditis elegans. As to the method:
Two quadrants were spiked with 2 μL of an attractant (0.5% diacetyl), and two contained 2 μL water as a control.[30] After 45 min, during which the worms could move freely, the dish was moved to 4 °C to immobilize the worms, and the number of worms in each quadrant was counted. The general activity was measured with a WMicrotracker from Phylumtech. This system measured the collective movement in multiwell plates by detecting the number of interruptions of an infrared beam over time. The total number of interruptions over a 30 min period was calculated with the Wmicrotracker software. […] For all data points, the mean and standard deviation were plotted using Graphpad Prism 9.4. The ordinary differential equations and parameters fitted in Matlab were also entered in Graphpad Prism to simulate the internal concentrations over time.

Assay [2] concerns C. elegans. The assay is described as follows: chemotaxis assay (diacetyl attractant). Type of assay: in vivo, Caenorhabditis elegans. As to conditions: nominal concentrations; 72 h exposure from L1; S medium with E. coli OD600 0.4; read-out: EC50 for chemotaxis (+95% confidence intervals). As to the method:
Two quadrants were spiked with 2 μL of an attractant (0.5% diacetyl), and two contained 2 μL water as a control.[30] After 45 min, during which the worms could move freely, the dish was moved to 4 °C to immobilize the worms, and the number of worms in each quadrant was counted. For all data points, the mean and standard deviation were plotted using Graphpad Prism 9.4. The ordinary differential equations and parameters fitted in Matlab were also entered in Graphpad Prism to simulate the internal concentrations over time.

In assay [3] the test system is C. elegans. As to conditions: ref previous studies; cited from earlier work.

SMILES strings stand for the structures. Counter-ions that a name gives are not always drawn.

Broadly, the EC50 is the concentration that produces a half-maximal response. For the molecule `CNCCC(Oc1ccc(C(F)(F)F)cc1)c1ccccc1` (stereo not drawn) [fluoxetine, Fluoxetine hydrochloride], the EC50 in the assay with C. elegans [1] was found to be 40 µg/mL; with C. elegans [2], 16 µg/mL. In addition, the “EC50 for the effect on C. elegans feeding behavior” value with C. elegans [3] is 7 µg/mL.

Values taken from PMC10882974 (Environmental Science & Technology, 2024).
